“And” between values parts separate entries of the source, which are not always exact repeats. Identical values can stand only once. Inconclusive means that the source gave no clear call. Such entries were picked first, then a sample of the others. A potency beside an inconclusive call is a rough fit, not a confirmed value. The source made the active and inactive calls. The call rests on the fitted dose curve; in most records, active means well fitted curve in the direction sought with a large enough effect; inconclusive means small, poorly fitted or top-dose-only effect, or another doubt; inactive means no such curve, though single readings can be large; an effect the other way counts as inactive or inconclusive.
assay: qHTS of pediatric cancer cell lines to identify multiple opportunities for drug repurposing: Confirmatory screen for MG 63 (6-TG R) cells (AID 1347119); conditions: MG-63 (6-TG resistant) osteosarcoma viability; activity change, negative = cytotoxicity: at 45.9 µM (top of the series); further: nearly all actives have a fitted effect of over 55% in size;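 on activity change, negative = cytotoxicity: plate controls were DMSO neutral control for no effect and bortezomib for full effect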
Procedure, shortened: (§1)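 Viability after 48 h compound treatment at 37C, 500-1,000 cells/well, read as ATP luminescence with CellTiter-Glo. Primary screens used 11-point (MIPE, 0.78 nM-46 µM) or 8-point (NPC, 0.59 nM-46 µM) final concentrations; follow-up screens used 11-point dilutions.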
Potency means the concentration at half of the fitted maximal effect.

Row | SMILES | Potency | activity change, negative = cytotoxicity
1 | CC(C)C[C@H](NC(=O)CNC(=O)c1cc(Cl)ccc1Cl)B1OC(=O)CC(CC(=O)O)(C(=O)O)O1 (stereo partly drawn) | inconclusive: 0.117 µM [cytotoxic, full curve, poor fit] | 
2 | COc1cccc2c1C(=O)c1c(O)c3c(c(O)c1C2=O)C[C@@](O)(C(=O)CO)C[C@H]3O[C@H]1C[C@H](N)[C@H](O)[C@H](C)O1 | inconclusive: 0.657 µM [cytotoxic, full curve] | 
3 | C[n+]1cc2c3c(ccc2c2ccc4cc5c(cc4c21)OCO5)OCO3 | active: 1.62 µM | 
4 | C[C@]12C=CC(=O)C=C1CC[C@H]1[C@@H]3C[C@@H](O)[C@](O)(C(=O)CO)[C@@]3(C)C[C@H](O)[C@@]12F | inconclusive: 8.27 µM [cytotoxic, full curve, poor fit] | 
5 | COc1cc2ncnc(Nc3cccc(Br)c3)c2cc1OC | inconclusive: 6.57 µM [rising, partial curve] | 
6 | O=C(O)c1ccc(Nc2ncc3c(n2)-c2ccc(Cl)cc2C(c2c(F)cccc2F)=NC3)cc1 | inconclusive: 0.329 µM [cytotoxic, full curve] | 
7 | CCC(C=C[C@@H]1OC(=O)C=C[C@H]1C)=C[C@H](C)CC=CC(C)=C[C@@H](C)C(=O)[C@@H](C)[C@H](O)[C@@H](C)CC(C)=CC(=O)O | inconclusive: 0.0128 µM [cytotoxic, full curve] | 
8 | COc1ccc(C=Cc2cc(OC)c(OC)c(OC)c2)cc1NC(=O)[C@H](N)CO | active: 0.0465 µM | 
9 | Oc1c(Cl)cc(Cl)c2cccnc12 | active: 11.7 µM | 
10 | CCC(C)(C)C(=O)O[C@H]1C[C@@H](C)C=C2C=C[C@H](C)[C@H](CC[C@@H]3C[C@@H](O)CC(=O)O3)[C@H]21 | active: 2.93 µM | 
11 | Nc1ncn([C@@H]2O[C@H](CO)[C@@H](O)[C@@H]2O)c(=O)n1 | inconclusive: 16.5 µM [cytotoxic, partial curve, poor fit] | 
12 | Nc1[nH]nc2nnc(-c3c(-c4ccccc4)nn4ccccc34)cc12 | inconclusive: 23.3 µM [cytotoxic, single point] | 
13 | C#CCC(Cc1cnc2nc(N)nc(N)c2n1)c1ccc(C(=O)N[C@@H](CCC(=O)O)C(=O)O)cc1 (stereo partly drawn) |  | inactive: -29.6%
14 | CCN1CCN(Cc2ccc(-c3cc4c(N[C@H](C)c5ccccc5)ncnc4[nH]3)cc2)CC1 | active: 13.5 µM | 
15 | Cc1ccc(C(N)=O)cc1Nc1nccc(-c2cn(C(C)C)c3cnccc23)n1 |  | inactive: -5.54% [at 95.5 µM]
16 | CC[C@]1(O)C[C@@H]2CN(CCc3c([nH]c4ccccc34)[C@@](C(=O)OC)(c3cc4c(cc3OC)N(C)[C@H]3[C@@](O)(C(=O)OC)[C@H](OC(C)=O)[C@]5(CC)C=CCN6CC[C@]43[C@@H]65)C2)C1 | active: 522 nM and active: 1.04 µM | 
17 | O=[N+]([O-])c1ccc(O)c2ncccc12 | inconclusive: 5.22 µM [cytotoxic, partial curve] | 
18 | O=C1NC(=O)C(c2cnc3ccccn23)=C1c1cn2c3c(cccc13)CN(C(=O)N1CCOCC1)CC2 | inconclusive: 0.737 µM [cytotoxic, full curve] | 
19 | Cc1ncc(-c2ccnc(Nc3ccc(S(C)(=O)=O)cc3)n2)n1C(C)C |  | inactive: -3.37%
20 | Nc1c2ccccc2nc2ccccc12 | inconclusive: 2.61 µM [cytotoxic, full curve] | 
21 | CO[C@@]12[C@H](COC(N)=O)C3=C(C(=O)C(C)=C(N)C3=O)N1C[C@@H]1N[C@@H]12 | inconclusive: 0.147 µM [rising, full curve, poor fit] | 
22 | NC(=O)NO |  | inactive: -11.3%

assay: qHTS of pediatric cancer cell lines to identify multiple opportunities for drug repurposing: Confirmatory screen for control Hh wild type fibroblast cells (AID 1347121); conditions: viability qHTS; series mostly up to 45.9 µM; activity, negative = cytotoxic: at the top concentration; further: nearly all actives have a fitted effect of over 70% in size;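 on activity, negative = cytotoxic: plate controls were DMSO for no effect and bortezomib for full effect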
Procedure, shortened: as §1

Row | SMILES | Potency | activity, negative = cytotoxic
23 | CCCCC(CC)CN=C(N)NC(N)=NCCCCCCN=C(N)NC(N)=NCC(CC)CCCC (stereo not drawn) | active: 2.93 µM | 
24 | CC(C)C[C@H](NC(=O)CNC(=O)c1cc(Cl)ccc1Cl)B1OC(=O)CC(CC(=O)O)(C(=O)O)O1 (stereo partly drawn) | active: 16.5 µM | 
25 | COc1cccc2c1C(=O)c1c(O)c3c(c(O)c1C2=O)C[C@@](O)(C(=O)CO)C[C@H]3O[C@H]1C[C@H](N)[C@H](O)[C@H](C)O1 | inconclusive: 1.31 µM [cytotoxic, full curve] | 
26 | CC(N[C@H]1CCCC[C@H]1NC(=O)c1ccc(Cl)cc1)c1cccc2ccccc12 (stereo partly drawn) | inconclusive: 29.3 µM [cytotoxic, single point] | 
27 | C[C@]12C=CC(=O)C=C1CC[C@H]1[C@@H]3C[C@@H](O)[C@](O)(C(=O)CO)[C@@]3(C)C[C@H](O)[C@@]12F | inconclusive: 11.7 µM [cytotoxic, partial curve] | 
28 | Nc1nc2c(c(=O)[nH]1)N(C=O)[C@H](CNc1ccc(C(=O)N[C@@H](CCC(=O)O)C(=O)O)cc1)CN2 | inconclusive: 0.0019 µM [rising, full curve, poor fit] | 
29 | CC(=O)OCC(=O)[C@@]1(O)[C@H](C)C[C@H]2[C@@H]3CCC4=CC(=O)C=C[C@]4(C)[C@@]3(F)[C@@H](O)C[C@@]21C | inconclusive: 20.8 µM [cytotoxic, partial curve, poor fit] | 
30 | COc1cc(C=CC(=O)CC(=O)C=Cc2ccc(O)c(OC)c2)ccc1O | inconclusive: 67.6 µM [cytotoxic, single point] | 
31 | COC(=O)c1ccc2c(C(=Nc3ccc(N(C)C(=O)CN4CCN(C)CC4)cc3)c3ccccc3)c(O)[nH]c2c1 |  | inactive: -12.7%
32 | CCC(C=C[C@@H]1OC(=O)C=C[C@H]1C)=C[C@H](C)CC=CC(C)=C[C@@H](C)C(=O)[C@@H](C)[C@H](O)[C@@H](C)CC(C)=CC(=O)O | inconclusive: 0.0361 µM [cytotoxic, full curve, poor fit] | 
33 | Oc1c(Cl)cc(Cl)c2cccnc12 | inconclusive: 32.9 µM [cytotoxic, single point] | 
34 | CCC(C)(C)C(=O)O[C@H]1C[C@@H](C)C=C2C=C[C@H](C)[C@H](CC[C@@H]3C[C@@H](O)CC(=O)O3)[C@H]21 | inconclusive: 2.08 µM [cytotoxic, full curve, poor fit] | 
35 | Nc1ncn([C@@H]2O[C@H](CO)[C@@H](O)[C@@H]2O)c(=O)n1 | inconclusive: 18.5 µM [cytotoxic, partial curve, poor fit] | 
36 | Nc1[nH]nc2nnc(-c3c(-c4ccccc4)nn4ccccc34)cc12 | inconclusive: 29.3 µM [cytotoxic, partial curve, poor fit] | 
37 | C#CCC(Cc1cnc2nc(N)nc(N)c2n1)c1ccc(C(=O)N[C@@H](CCC(=O)O)C(=O)O)cc1 (stereo partly drawn) |  | inactive: 12.3%
38 | CCN1CCN(Cc2ccc(-c3cc4c(N[C@H](C)c5ccccc5)ncnc4[nH]3)cc2)CC1 | active: 42.7 µM | 
39 | C[C@H]1O[C@@H](O[C@H]2CC[C@@]3(C)[C@H](CC[C@@H]4[C@@H]3C[C@@H](O)[C@]3(C)[C@@H](C5=CC(=O)OC5)CC[C@]43O)C2)C[C@H](O)[C@@H]1O[C@H]1C[C@H](O)[C@H](O[C@H]2C[C@H](O)[C@H](O[C@@H]3O[C@H](CO)[C@@H](O)[C@H](O)[C@H]3O)[C@@H](C)O2)[C@@H](C)O1 | inconclusive: 0.104 µM [cytotoxic, full curve] | 
40 | O=[N+]([O-])c1ccc(O)c2ncccc12 | inconclusive: 8.27 µM [cytotoxic, full curve] | 
41 | Nc1ncnc2c1ncn2[C@@H]1O[C@H](CO)[C@@H](O)[C@@H]1O | inconclusive: 6.57 µM [cytotoxic, full curve] | 
42 | NC(=O)Nc1cc(-c2ccc(CN3CCOCC3)cc2)sc1C(N)=O | inconclusive: 29.3 µM [cytotoxic, single point] | 
43 | COc1cc(Nc2ncc(F)c(Nc3ccc4c(n3)N(COP(=O)(O)O)C(=O)C(C)(C)O4)n2)cc(OC)c1OC | inconclusive: 5.85 µM [cytotoxic, partial curve] | 
44 | C[C@@H](Oc1cc(-c2cnn(C3CCNCC3)c2)cnc1N)c1c(Cl)ccc(F)c1Cl | inconclusive: 16.5 µM [cytotoxic, partial curve, poor fit] | 
45 | Nc1c2ccccc2nc2ccccc12 | inconclusive: 3.29 µM [cytotoxic, full curve] | 
46 | Oc1cccc(-c2nc(N3CCOCC3)c3oc4ncccc4c3n2)c1 | inconclusive: 0.339 µM [cytotoxic, full curve] | 
47 | CO[C@@]12[C@H](COC(N)=O)C3=C(C(=O)C(C)=C(N)C3=O)N1C[C@@H]1N[C@@H]12 | inconclusive: 26.1 µM [cytotoxic, partial curve, poor fit] | 
48 | CN(C)c1ccc(C(=C2C=CC(=[N+](C)C)C=C2)c2ccc(N(C)C)cc2)cc1 | active: 1.04 µM | 

— PubChem BioAssay (NCATS)
